Binding data for four substances are collected here from doi:10.1101/2022.05.07.491022.

By UniProt entry, the sequences of proteins in these tests, tags left out.
UniProt P30281, whole entry: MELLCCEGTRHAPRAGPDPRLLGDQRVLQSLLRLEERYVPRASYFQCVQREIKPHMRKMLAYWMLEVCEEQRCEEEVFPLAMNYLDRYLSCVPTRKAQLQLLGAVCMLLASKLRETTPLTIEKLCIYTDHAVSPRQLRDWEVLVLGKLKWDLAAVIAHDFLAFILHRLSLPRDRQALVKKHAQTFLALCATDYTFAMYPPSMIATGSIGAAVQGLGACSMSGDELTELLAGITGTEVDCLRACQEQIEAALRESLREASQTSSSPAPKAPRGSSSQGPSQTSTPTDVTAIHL

What all share (test): co-IP
Assay [1] addresses Strep-tagged SARS-CoV-2 Envelope (E) protein (SARS-CoV-2) (UniProt P0DTC4).
Assay [2] concerns the target Strep-tagged SARS-CoV-2 Membrane (M) protein (SARS-CoV-2) (UniProt P0DTC5).
For assay [3], the target named is HA-tagged cyclin D3 (UniProt P30281).

These are yes or no findings as the source states them, for the method shown. Binding seen in cells or lysates may run through a third protein. Some results given as binding are weak or reduced against the parent protein; the word gives no strength.

On to “HA-tagged cyclin D3 (from UniProt P30281 1-292)”, for which the binding result in assay [1] and in assay [2] was “binds” in each case. On to “Strep-tagged SARS-CoV-2 Envelope (E) protein (from UniProt P0DTC4 1-75)”, for which the binding result in assay [3] was “binds”. Regarding “Strep-tagged SARS-CoV-2 Membrane (M) protein (from UniProt P0DTC5 1-222)”, the binding result in assay [3] is “binds”. Still for that read-out and setting: then “Strep-tagged SARS-CoV-2 nsp9 protein (from UniProt P0DTD1 4141-4253)”, with “no binding”.
